The shares of active, inactive and inconclusive entries below differ from those in the screen. The source made the active and inactive calls.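 Rule for the calls: active = signal-lowering compounds whose fitted half-maximal concentration is at most ten times their highest tested dose; inconclusive = flat fit between -30 and -70%, or poor fit; inactive = flat within 30%, signal rising, or potency beyond limit.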
Each compound was assayed on POS-1 (Caenorhabditis elegans) binding to mex-3 RNA (assay: C. elegans POS-1 RNA interaction disruptors – biochemical, fluorescence polarization, cherry-picked samples, set 2, counter-screen for MEX-5 RNA-binding inhibitor project, dose response (AID 493130;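 note: POS-1 as maltose binding protein fusion made in E. coli with FITC RNA; 0% = DMSO neutral wells and -100% = excess unlabeled mex3 competitor RNA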)). Conditions: POS-1/mex-3 RNA fluorescence polarization, 1 h; at 10 µM (top of the series).

Structure (SMILES) | activity change, negative = inhibition
COc1ccc(Cn2c3ccc(OC)cc3c3nc4ccccc4nc32)cc1 | inconclusive: -84.6%
CCOc1ccccc1C1NC(=O)NC(C)=C1C(=O)OCc1ccccc1 (centres undefined) | inactive: -4.03%
CN(C)c1ccc(/C=C(/C#N)C(=O)NCc2ccccc2)o1 | inconclusive: 23.4%
COc1ccccc1/C=C1\SC(=S)N(CCC(=O)NC2=NCCS2)C1=O | inconclusive: -68.8%
COc1cccc(C2C=C(c3ccc(Br)s3)Nc3ncnn32)c1OC (centres undefined) | inconclusive: -31.2%
CCOC(=O)/C(=C/c1ccc(N2CCC(c3ccccc3)=N2)cc1)C(C)=O | inconclusive: -58.2%
CCc1ccc(S(=O)(=O)/N=C2\C=C(Nc3ccc(C(=O)O)cc3)C(=O)c3ccccc32)cc1 | inactive: -11%
Cc1nc2ccccc2n1/N=C/c1ccc([N+](=O)[O-])s1 | inconclusive: -31%
CCOC(=O)NC(=O)/C(C#N)=C\Nc1sccc1C(=O)OC | inactive: -9.02%
CCOc1ccc(-c2c(C#N)c(N)nc3sc(C(=O)c4ccccc4)c(N)c23)cc1 | inconclusive: -57%
Cc1cccn2c(=O)c3cc(C#N)c(=NC(=O)c4cccs4)n(CC(C)C)c3nc12 | inconclusive: -4.17%
Cc1cccn2c(=O)c3cc(S(=O)(=O)c4ccc(Br)cc4)c(=N)n(C4CCCCC4)c3nc12 | inconclusive: -0.74%
C/C=C(\C)CN1CCC(n2nccc2NC(=O)CCCc2ccccc2)CC1 | inactive: -4.48%
COC(=O)c1ccc2c(c1)SC1=C(CCCC1=O)N2 | inconclusive: -34.7%

Two entries from above, with each value named:
Cc1cccn2c(=O)c3cc(C#N)c(=NC(=O)c4cccs4)n(CC(C)C)c3nc12
  activity change, negative = inhibition: inconclusive: -4.17%
Cc1cccn2c(=O)c3cc(S(=O)(=O)c4ccc(Br)cc4)c(=N)n(C4CCCCC4)c3nc12
  activity change, negative = inhibition: inconclusive: -0.74%

Reference: PubChem BioAssay AID493130 (Broad Institute, 2011)
